The values below come from publication PMC10318456, “Selective inhibitors of the PSEN1–gamma-secretase complex” (The Journal of Biological Chemistry, 2023).

For assay [1], the system named is PSEN1 versus PSEN2 γ-secretase complexes. The assay is described as follows: Comparison of the four MEF cell lines: selectivity between γ-secretase complexes (IC50 ratios). In kind it is cell-based, human.
The target of assay [2] is PSEN1 L166A–APH1A γ-secretase complex (Homo sapiens, UniProt P49768, L166A). The experiment in a line: Aβ40 secretion, MEF cell pool restored with PSEN1 L166A–APH1A. The following applies: decimal comma.

The source holds more than one record for some entries. Only these are listed. There may be further records. Values given together differ, and nothing given here explains why; some may be repeats, others may stem from another dose, organism or construct than stated.

Regarding `CC(C)C[C@H](NC(=O)[C@H](Cc1ccccc1)C[C@@H](O)[C@H](Cc1ccccc1)NC(=O)OC(C)(C)C)C(=O)N[C@@H](Cc1ccccc1)C(=O)O` (single isomer, unassigned), in assay [1], the “selectivity toward the different γ-secretase complexes” value is < 10 fold and little or no selectivity.

As for `C[C@H](NC(=O)Cc1cc(F)cc(F)c1)C(=O)N[C@H](C(=O)OC(C)(C)C)c1ccccc1` [DAPT], the “IC50 fold change to WT” value in assay [2] was 8,122 fold and > 3 fold.

Regarding `CC(C)C[C@H](NC(=O)[C@H](Cc1ccccc1)C[C@@H](O)[C@H](Cc1ccccc1)NC(=O)OC(C)(C)C)C(=O)N[C@@H](Cc1ccccc1)C(N)=O` [L-685,458], in assay [1], the “selectivity toward the different γ-secretase complexes” value is < 10 fold and little or no selectivity.
